Reference: the supplement of paper PMC10849652
The other results are listed elsewhere or left out. Residues, ends and D or L forms follow the SMILES beside them. *: point of attachment. Cbz = O=C(OCc1ccccc1)*

Amino acid sequences for entries named in this document (tags omitted). A change or cut given only in a name is not applied to a line headed by its entry.
UniProt Q499Z4: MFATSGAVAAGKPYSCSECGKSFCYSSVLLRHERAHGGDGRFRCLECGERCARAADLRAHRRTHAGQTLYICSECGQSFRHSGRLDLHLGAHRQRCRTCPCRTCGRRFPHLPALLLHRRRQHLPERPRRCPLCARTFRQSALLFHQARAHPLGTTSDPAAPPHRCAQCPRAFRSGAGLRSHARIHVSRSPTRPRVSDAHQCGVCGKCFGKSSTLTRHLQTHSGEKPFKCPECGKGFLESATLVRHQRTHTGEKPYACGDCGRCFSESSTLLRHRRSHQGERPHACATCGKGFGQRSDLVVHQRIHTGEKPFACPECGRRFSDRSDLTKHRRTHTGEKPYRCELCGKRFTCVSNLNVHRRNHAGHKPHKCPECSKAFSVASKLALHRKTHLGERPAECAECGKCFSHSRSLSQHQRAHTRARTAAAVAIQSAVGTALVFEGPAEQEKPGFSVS
UniProt Q5VV52: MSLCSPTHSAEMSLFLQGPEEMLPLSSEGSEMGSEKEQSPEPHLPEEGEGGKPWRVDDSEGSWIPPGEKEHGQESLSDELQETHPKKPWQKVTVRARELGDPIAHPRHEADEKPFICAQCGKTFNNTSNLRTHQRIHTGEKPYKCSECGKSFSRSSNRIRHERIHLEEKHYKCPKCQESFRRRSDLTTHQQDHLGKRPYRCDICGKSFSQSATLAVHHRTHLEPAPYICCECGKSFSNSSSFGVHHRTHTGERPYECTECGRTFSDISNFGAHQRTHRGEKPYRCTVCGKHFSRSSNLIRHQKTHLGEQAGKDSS
UniProt Q9Y5V0: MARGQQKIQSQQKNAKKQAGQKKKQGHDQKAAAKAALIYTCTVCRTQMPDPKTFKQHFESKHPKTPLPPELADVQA
UniProt Q8NDX6: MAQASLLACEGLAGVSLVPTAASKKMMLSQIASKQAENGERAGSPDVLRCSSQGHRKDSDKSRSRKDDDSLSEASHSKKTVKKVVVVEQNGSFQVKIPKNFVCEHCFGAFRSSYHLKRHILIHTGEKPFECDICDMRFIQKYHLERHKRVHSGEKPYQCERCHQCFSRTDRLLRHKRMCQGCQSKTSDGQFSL
UniProt Q9H5H4: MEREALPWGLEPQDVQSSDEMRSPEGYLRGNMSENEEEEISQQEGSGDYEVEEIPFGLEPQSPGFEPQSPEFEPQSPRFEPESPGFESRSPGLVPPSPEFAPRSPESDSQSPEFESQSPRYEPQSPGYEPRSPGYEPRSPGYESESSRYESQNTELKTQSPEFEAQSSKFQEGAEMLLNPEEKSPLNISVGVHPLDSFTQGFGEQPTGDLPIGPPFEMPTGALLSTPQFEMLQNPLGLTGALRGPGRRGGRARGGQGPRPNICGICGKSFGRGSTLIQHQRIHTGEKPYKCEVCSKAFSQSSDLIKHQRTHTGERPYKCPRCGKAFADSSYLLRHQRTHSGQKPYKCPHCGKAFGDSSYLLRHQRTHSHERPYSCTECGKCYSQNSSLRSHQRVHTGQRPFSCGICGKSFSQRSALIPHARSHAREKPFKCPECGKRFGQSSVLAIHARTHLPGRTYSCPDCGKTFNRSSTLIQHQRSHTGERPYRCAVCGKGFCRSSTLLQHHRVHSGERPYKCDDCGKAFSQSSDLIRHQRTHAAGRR
UniProt Q16587: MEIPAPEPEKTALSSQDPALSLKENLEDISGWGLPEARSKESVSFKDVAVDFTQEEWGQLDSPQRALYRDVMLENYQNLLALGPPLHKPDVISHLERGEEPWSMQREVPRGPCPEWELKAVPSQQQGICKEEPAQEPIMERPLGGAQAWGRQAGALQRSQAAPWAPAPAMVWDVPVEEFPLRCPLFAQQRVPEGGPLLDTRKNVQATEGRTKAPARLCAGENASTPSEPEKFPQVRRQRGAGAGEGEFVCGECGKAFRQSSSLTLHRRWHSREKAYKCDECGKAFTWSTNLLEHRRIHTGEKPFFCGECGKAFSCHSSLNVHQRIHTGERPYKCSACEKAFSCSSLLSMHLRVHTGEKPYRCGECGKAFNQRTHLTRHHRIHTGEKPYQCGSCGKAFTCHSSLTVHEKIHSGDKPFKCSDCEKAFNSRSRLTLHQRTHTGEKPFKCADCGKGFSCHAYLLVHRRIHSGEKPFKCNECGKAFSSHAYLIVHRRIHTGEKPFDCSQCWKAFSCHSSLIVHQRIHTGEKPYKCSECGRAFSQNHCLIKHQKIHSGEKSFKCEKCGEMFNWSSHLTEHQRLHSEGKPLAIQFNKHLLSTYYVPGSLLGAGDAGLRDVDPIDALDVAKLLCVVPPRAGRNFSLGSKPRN

How the values were obtained:
Assay in all cases: log2 fold change, soluble protein after heating vs DMSO (PISA); higher = thermal stabilisation; K562 cells, 10 uM, 30 min; active = over 0.2 and 3.5 SD of the protein, either way, in both replicates (recomputed)
ZNF672 = ZNF672 (UniProt Q499Z4)
Procedure, shortened: (§1)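 Aliquots of K562 cells (2×10^6 cells/mL) treated with 10 μM compound for 30 min were heated for 3 min over 48°C-58°C. After pooling and extraction in PBS with 0.5% NP-40 at 4°C, soluble protein from a 21,000xg, 90 min spin was quantified by TMTpro 16plex LC-MS/MS with channel sums equalised. Thermal stability is expressed against control samples, from duplicates, as a log2 fold change.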

ZNF691 = ZNF691 (UniProt Q5VV52)
Procedure, shortened: as §1

ZNF706 = ZNF706 (UniProt Q9Y5V0)
Procedure, shortened: as §1

ZNF740 = ZNF740 (UniProt Q8NDX6)
Procedure, shortened: as §1

ZNF768 = ZNF768 (UniProt Q9H5H4)
Procedure, shortened: as §1

ZNF74 isoform 5 = ZNF74 isoform 5 (UniProt Q16587)
Procedure, shortened: as §1

Measured: log2 fold change

FC(F)(F)c1ccc(/C=C/c2nc(COc3ccc(CCCCn4ccnn4)cc3)co2)cc1 [mubritinib]
inactive: ZNF672 = -0.154 | ZNF691 = -0.031 | ZNF706 = 0.017 | ZNF740 = 0.001 | ZNF768 = -0.115

Oc1cc(-c2nc(-c3ccccc3)[nH]c2-c2ccncc2)ccc1Cl
inactive: ZNF672 = -0.021 | ZNF691 = 0.137 | ZNF706 = 0.02 | ZNF740 = -0.118 | ZNF768 = -0.073

CCCc1cc(C)[nH]c(=O)c1CNC(=O)c1cc(-c2ccnc(N3CCN(C)CC3)c2)cc2c1cnn2C(C)C
inactive: ZNF672 = 0.015 | ZNF691 = -0.006 | ZNF706 = -0.05 | ZNF740 = 0.054 | ZNF768 = 0.163

Cc1cc(Nc2cc(N3CCN(C)CC3)nc(Sc3ccc(NC(=O)C4CC4)cc3)n2)n[nH]1 [tozasertib]
inactive: ZNF672 = -0.042 | ZNF691 = 0.043 | ZNF706 = -0.02 | ZNF768 = 0.007

CN1CCc2c(c3ccccc3n2Cc2ccc(C(=O)NO)cc2)C1 [Tubastatin A]
inactive: ZNF672 = -0.021 | ZNF691 = -0.025 | ZNF706 = 0.081 | ZNF768 = 0.162

Cc1ccc(C(=O)N(CCCN)[C@@H](c2nc3cc(Cl)ccc3c(=O)n2Cc2ccccc2)C(C)C)cc1 [ispinesib]
inactive: ZNF672 = -0.258 | ZNF691 = 0.08 | ZNF706 = 0.008 | ZNF740 = -0.083 | ZNF768 = -0.196

Cc1nc(Nc2ncc(C(=O)Nc3c(C)cccc3Cl)s2)cc(N2CCN(CCO)CC2)n1 [dasatinib]
inactive: ZNF672 = -0.111 | ZNF691 = 0.004 | ZNF706 = 0.078 | ZNF768 = 0.086

CCn1c(C(=O)N(C2CC2)C2CC2)cc2c3c(ncn3C)c(Nc3cc(C)n(C)n3)nc21
inactive: ZNF672 = 0.038 | ZNF691 = -0.026 | ZNF706 = 0.016 | ZNF74 isoform 5 = 0.046 | ZNF768 = -0.058

An excerpt from above in order of molar mass, low to high:
CCn1c(C(=O)N(C2CC2)C2CC2)cc2c3c(ncn3C)c(Nc3cc(C)n(C)n3)nc21
inactive: ZNF672 = 0.038 | ZNF691 = -0.026 | ZNF706 = 0.016 | ZNF74 isoform 5 = 0.046 | ZNF768 = -0.058

Cc1cc(Nc2cc(N3CCN(C)CC3)nc(Sc3ccc(NC(=O)C4CC4)cc3)n2)n[nH]1 [tozasertib]
inactive: ZNF672 = -0.042 | ZNF691 = 0.043 | ZNF706 = -0.02 | ZNF768 = 0.007

Cc1nc(Nc2ncc(C(=O)Nc3c(C)cccc3Cl)s2)cc(N2CCN(CCO)CC2)n1 [dasatinib]
inactive: ZNF672 = -0.111 | ZNF691 = 0.004 | ZNF706 = 0.078 | ZNF768 = 0.086

(more compounds)

C[C@@H](N)c1ccc(C(=O)Nc2ccnc3[nH]ccc23)cc1
inactive: ZNF672 = -0.014 | ZNF691 = -0.006 | ZNF706 = -0.057 | ZNF740 = 0.326 | ZNF768 = 0.346

NC1(Cc2ccc(Cl)cc2)CCN(c2ncnc3[nH]ccc23)CC1
inactive: ZNF672 = 0.138 | ZNF691 = -0.014 | ZNF706 = 0.074 | ZNF768 = -0.096

O=C(Nc1cccc(Nc2ncc(Br)c(NCCc3cnc[nH]3)n2)c1)N1CCCC1
inactive: ZNF672 = -0.018 | ZNF691 = -0.002 | ZNF706 = -0.031 | ZNF768 = 0.111

Cc1ccc2c(=O)c3ccccc3n(CCCN)c2c1C
inactive: ZNF672 = -0.154 | ZNF691 = 0.201 | ZNF706 = -0.035 | ZNF768 = -0.268

CC(C)(C)Cn1c(N)nc2ccc(-c3[nH]c(C(C)(C)C)nc3-c3ccc(F)cc3)nc21 [ralimetinib]
inactive: ZNF672 = 0.056 | ZNF691 = -0.091 | ZNF706 = 0.002 | ZNF740 = 0.026 | ZNF768 = 0.116

CCN(CC)Cc1ccc2cc(COC(=O)Nc3ccc(C(=O)NO)cc3)ccc2c1 [givinostat]
inactive: ZNF672 = 0.031 | ZNF691 = -0.092 | ZNF706 = -0.022 | ZNF74 isoform 5 = 0.01 | ZNF768 = 0.062

Cc1cc(SCc2sc(-c3ccc(C(F)(F)F)cc3)nc2C)ccc1OCC(=O)O
inactive: ZNF672 = 0.053 | ZNF691 = 0.03 | ZNF706 = -0.038 | ZNF768 = -0.002

O=C(O)c1ccc2c(c1)nc(Nc1cccc(Cl)c1)c1ccncc12 [silmitasertib]
inactive: ZNF672 = 0.012 | ZNF691 = 0.044 | ZNF706 = -0.012 | ZNF740 = -0.04 | ZNF768 = 0.123

CO[C@H]1C[C@@H]2CC[C@@H](C)[C@@](O)(O2)C(=O)C(=O)N2CCCC[C@H]2C(=O)O[C@H]([C@H](C)C[C@@H]2CC[C@H](n3cnnn3)[C@H](OC)C2)CC(=O)[C@H](C)/C=C(\C)[C@@H](O)[C@@H](OC)C(=O)[C@H](C)C[C@H](C)/C=C/C=C/C=C/1C [zotarolimus]
inactive: ZNF672 = 0.028 | ZNF691 = 0.061 | ZNF706 = 0.01 | ZNF740 = -0.103 | ZNF768 = 0.029

Cn1c2cc(S(C)=O)sc2c2cnn(Cc3cccc(N)c3)c(=O)c21 (stereo not given)
inactive: ZNF672 = 0.106 | ZNF691 = 0.007 | ZNF706 = -0.033 | ZNF768 = 0.203

CC(C)C[C@@H](C=O)NC(=O)[C@H](CC(C)C)NC(=O)[C@H](CC(C)C)NC(=O)OCc1ccccc1 (Cbz-Leu-Leu-Leu-aldehyde)
inactive: ZNF672 = 0.051 | ZNF691 = 0.045 | ZNF706 = -0.016 | ZNF740 = -0.009 | ZNF768 = 0.272

CN1CCN(CCOc2cc(OC3CCOCC3)c3c(Nc4c(Cl)ccc5c4OCO5)ncnc3c2)CC1 [saracatinib]
inactive: ZNF672 = 0 | ZNF691 = -0.093 | ZNF706 = -0.013 | ZNF768 = -0.126

COc1cccc2cc(-c3nc([C@H]4CC[C@H](C(=O)O)CC4)n4ncnc(N)c34)[nH]c12
inactive: ZNF672 = 0.046 | ZNF691 = -0.024 | ZNF706 = 0.021 | ZNF740 = 0.15 | ZNF768 = -0.133

CC(C)c1cnn2c(NCc3ccccc3)cc(NCCCCCCN)nc12
inactive: ZNF672 = -0.166 | ZNF691 = 0.072 | ZNF706 = 0.073 | ZNF74 isoform 5 = 0.126 | ZNF768 = 0.15

CN1CC[C@H](c2c(O)cc(O)c3c(=O)cc(-c4ccccc4Cl)oc23)[C@H](O)C1 [alvocidib]
inactive: ZNF672 = 0.133 | ZNF691 = 0.06 | ZNF706 = 0.019 | ZNF740 = 0.3 | ZNF768 = 0.193

C[C@H](Nc1ncnc2nc[nH]c12)c1cc2cccc(Cl)c2c(=O)n1-c1ccccc1 [duvelisib]
inactive: ZNF672 = -0.15 | ZNF691 = 0.055 | ZNF706 = -0.047 | ZNF768 = -0.077
